According to the supplement of paper PMC10849652:
The other results are listed elsewhere or left out.

Sequences of proteins named here, by UniProt entry; tags and fusion partners are left off. A change or cut given only in a name is not applied to a line headed by its entry.
UniProt Q9H0I2: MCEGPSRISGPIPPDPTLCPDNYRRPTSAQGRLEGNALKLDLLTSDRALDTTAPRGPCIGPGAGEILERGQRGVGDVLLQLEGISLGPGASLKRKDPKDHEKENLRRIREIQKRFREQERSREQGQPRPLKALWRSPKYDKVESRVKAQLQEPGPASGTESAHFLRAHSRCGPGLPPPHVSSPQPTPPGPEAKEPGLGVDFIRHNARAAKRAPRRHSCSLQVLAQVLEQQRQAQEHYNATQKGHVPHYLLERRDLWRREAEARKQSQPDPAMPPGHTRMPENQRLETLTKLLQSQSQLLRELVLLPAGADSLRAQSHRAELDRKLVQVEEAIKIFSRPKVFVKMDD
UniProt P23588, whole entry, looked up: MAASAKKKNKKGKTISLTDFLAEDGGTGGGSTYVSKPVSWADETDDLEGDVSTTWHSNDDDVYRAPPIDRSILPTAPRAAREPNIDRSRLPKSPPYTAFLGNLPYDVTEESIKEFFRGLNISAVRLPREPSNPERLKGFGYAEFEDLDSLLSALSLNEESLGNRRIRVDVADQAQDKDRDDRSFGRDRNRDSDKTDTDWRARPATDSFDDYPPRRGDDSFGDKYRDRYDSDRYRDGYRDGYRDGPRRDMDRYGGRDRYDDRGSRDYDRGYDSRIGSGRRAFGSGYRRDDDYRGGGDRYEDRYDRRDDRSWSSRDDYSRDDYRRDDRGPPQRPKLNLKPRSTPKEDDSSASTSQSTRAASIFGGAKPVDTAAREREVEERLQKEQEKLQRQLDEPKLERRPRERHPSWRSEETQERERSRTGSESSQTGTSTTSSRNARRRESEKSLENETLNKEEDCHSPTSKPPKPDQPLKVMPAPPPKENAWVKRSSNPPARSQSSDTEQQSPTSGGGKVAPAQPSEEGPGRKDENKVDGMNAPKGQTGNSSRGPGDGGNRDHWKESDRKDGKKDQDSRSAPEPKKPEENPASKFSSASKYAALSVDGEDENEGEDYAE
UniProt Q9H777: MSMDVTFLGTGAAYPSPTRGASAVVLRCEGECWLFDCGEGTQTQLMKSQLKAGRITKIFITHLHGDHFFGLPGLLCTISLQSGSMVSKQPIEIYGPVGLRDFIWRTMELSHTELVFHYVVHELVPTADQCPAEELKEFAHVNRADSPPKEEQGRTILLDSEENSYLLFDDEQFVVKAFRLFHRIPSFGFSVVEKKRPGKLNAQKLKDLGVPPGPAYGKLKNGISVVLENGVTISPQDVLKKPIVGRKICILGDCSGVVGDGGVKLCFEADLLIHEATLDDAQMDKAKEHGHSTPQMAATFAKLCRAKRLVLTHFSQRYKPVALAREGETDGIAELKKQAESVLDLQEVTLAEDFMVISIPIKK
UniProt O75821, whole entry, looked up: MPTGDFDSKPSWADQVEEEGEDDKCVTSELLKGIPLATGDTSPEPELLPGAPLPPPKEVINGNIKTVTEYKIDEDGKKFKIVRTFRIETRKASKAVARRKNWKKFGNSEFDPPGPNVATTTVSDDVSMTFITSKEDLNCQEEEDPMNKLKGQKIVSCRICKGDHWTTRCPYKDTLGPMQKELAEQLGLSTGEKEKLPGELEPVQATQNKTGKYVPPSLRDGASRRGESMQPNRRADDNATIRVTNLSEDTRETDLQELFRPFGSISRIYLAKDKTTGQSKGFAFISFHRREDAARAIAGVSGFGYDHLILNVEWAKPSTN
UniProt Q32P44: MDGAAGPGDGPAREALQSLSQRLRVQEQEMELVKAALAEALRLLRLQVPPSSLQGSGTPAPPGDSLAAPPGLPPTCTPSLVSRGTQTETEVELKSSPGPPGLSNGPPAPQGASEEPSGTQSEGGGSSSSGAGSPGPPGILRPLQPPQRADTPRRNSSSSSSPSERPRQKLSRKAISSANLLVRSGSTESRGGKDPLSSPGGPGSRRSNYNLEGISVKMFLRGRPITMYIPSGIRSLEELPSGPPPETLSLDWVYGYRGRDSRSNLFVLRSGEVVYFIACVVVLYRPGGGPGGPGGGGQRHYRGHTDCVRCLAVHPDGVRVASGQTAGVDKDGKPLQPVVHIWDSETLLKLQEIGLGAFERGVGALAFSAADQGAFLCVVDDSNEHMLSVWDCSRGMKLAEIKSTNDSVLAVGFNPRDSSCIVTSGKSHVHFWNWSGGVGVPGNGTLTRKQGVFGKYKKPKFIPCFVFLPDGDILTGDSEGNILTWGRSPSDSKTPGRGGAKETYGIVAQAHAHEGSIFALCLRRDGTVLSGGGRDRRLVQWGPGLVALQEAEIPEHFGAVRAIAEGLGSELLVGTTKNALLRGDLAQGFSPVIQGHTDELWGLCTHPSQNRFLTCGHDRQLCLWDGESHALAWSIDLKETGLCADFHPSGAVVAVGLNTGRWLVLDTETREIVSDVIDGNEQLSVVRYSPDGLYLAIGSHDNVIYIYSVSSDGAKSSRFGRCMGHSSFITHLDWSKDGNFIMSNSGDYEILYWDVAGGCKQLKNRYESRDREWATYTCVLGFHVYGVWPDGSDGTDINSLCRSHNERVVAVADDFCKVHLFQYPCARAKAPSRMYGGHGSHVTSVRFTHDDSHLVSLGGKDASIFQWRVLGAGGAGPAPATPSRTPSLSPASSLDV
UniProt Q9GZV4: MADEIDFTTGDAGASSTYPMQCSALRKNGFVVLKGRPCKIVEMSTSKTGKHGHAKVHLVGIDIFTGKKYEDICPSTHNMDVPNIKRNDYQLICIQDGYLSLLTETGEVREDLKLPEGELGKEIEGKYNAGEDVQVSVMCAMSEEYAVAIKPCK
UniProt Q14156: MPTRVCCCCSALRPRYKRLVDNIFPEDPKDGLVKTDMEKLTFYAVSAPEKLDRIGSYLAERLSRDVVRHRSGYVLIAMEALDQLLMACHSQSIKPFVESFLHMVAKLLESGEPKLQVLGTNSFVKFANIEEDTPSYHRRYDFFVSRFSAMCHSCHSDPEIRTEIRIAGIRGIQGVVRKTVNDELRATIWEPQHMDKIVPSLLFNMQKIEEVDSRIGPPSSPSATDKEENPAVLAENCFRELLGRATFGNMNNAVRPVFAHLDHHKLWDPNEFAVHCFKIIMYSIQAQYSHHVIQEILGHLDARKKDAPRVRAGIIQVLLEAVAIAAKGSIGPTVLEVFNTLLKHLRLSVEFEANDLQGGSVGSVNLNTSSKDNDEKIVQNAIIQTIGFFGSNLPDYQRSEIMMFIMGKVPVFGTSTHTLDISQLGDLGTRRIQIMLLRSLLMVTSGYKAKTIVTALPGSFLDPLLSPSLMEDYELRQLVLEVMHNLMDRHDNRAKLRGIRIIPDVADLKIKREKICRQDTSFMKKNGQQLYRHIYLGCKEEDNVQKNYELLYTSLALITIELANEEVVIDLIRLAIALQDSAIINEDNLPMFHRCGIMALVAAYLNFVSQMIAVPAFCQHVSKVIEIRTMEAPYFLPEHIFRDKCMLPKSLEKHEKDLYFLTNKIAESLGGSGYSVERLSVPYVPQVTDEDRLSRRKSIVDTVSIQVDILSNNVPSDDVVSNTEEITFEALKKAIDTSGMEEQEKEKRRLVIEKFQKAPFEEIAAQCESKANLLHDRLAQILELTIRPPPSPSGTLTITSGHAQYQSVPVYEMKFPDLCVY
UniProt Q92556, whole entry, looked up: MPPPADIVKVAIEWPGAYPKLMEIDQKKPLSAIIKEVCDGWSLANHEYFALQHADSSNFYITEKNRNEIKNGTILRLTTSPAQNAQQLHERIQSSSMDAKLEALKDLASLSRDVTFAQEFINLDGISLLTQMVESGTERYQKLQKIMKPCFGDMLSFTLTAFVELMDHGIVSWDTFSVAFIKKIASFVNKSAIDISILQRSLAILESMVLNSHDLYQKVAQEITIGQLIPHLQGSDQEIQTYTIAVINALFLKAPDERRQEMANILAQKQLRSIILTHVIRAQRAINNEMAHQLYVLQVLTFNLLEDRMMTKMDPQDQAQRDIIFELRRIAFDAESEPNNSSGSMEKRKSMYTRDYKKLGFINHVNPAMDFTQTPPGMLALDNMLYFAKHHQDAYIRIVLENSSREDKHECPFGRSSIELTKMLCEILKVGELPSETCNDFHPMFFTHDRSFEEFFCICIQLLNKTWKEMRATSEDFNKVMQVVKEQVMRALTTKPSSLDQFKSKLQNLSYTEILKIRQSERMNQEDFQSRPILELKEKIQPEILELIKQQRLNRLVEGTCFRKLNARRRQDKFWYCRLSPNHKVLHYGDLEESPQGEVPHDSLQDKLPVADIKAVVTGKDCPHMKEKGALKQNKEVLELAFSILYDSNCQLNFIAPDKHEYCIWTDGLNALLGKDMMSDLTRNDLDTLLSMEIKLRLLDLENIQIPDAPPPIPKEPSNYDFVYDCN
UniProt A1L3X0: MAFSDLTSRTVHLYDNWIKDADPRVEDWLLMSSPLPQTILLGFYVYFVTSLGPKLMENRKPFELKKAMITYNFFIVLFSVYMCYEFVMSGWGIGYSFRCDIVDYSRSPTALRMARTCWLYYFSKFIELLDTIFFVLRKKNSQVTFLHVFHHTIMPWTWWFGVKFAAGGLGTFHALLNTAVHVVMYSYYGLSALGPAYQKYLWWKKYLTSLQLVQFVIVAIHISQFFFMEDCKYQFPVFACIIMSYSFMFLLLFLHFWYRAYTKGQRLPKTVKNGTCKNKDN
UniProt Q6ZTU2, whole entry, looked up: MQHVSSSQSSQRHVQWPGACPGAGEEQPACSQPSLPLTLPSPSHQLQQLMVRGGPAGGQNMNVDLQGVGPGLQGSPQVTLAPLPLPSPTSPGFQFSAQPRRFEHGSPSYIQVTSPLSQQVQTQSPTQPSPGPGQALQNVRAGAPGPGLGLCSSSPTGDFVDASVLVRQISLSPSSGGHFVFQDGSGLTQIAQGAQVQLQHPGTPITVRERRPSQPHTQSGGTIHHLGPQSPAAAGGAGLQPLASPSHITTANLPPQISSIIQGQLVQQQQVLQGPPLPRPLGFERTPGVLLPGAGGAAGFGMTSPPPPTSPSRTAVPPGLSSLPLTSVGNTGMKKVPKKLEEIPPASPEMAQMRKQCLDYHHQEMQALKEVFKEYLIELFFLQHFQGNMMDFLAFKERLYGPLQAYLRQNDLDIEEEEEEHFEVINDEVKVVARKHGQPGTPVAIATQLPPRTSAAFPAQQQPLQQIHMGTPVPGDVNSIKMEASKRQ
UniProt Q9BUP0: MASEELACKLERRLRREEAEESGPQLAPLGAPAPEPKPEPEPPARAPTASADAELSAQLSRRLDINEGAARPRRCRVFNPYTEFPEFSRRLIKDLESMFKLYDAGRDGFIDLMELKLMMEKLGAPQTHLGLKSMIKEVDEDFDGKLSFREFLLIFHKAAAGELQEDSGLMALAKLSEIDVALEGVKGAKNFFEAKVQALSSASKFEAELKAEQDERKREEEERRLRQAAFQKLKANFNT
UniProt Q9Y227: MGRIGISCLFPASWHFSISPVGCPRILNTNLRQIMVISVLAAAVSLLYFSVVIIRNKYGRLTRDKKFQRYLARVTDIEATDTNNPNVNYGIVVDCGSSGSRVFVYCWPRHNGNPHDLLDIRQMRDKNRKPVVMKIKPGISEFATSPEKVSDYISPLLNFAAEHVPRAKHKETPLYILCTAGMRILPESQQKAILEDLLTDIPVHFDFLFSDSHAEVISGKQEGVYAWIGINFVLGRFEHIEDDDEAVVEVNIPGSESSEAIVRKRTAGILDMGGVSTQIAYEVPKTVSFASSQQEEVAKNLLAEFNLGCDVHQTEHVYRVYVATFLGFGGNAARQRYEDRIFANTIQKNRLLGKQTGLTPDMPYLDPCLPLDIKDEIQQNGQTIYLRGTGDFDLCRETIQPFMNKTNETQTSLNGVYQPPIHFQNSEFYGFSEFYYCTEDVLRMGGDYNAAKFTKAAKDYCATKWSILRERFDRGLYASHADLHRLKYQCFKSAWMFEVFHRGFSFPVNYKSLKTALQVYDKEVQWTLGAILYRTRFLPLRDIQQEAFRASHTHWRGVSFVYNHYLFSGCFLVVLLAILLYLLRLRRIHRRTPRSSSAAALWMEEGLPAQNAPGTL
UniProt Q7L5Y1: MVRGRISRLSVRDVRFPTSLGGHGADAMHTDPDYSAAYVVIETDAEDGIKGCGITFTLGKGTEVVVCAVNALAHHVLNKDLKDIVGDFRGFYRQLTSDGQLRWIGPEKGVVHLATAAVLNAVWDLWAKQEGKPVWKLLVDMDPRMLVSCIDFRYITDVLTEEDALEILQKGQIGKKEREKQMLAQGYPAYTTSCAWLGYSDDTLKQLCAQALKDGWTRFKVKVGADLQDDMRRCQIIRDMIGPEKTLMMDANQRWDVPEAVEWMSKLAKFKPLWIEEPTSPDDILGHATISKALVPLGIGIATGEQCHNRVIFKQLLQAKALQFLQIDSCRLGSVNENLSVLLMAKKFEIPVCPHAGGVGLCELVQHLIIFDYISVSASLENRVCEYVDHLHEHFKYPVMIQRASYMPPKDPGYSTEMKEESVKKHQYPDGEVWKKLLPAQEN
UniProt P29692: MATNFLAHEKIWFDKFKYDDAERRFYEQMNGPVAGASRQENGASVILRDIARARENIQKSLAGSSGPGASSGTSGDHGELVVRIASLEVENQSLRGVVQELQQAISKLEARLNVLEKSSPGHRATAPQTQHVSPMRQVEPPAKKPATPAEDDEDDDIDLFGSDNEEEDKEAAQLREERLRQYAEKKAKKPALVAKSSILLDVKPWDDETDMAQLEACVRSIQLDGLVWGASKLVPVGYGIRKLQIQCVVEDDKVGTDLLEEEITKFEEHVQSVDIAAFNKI

Key:
Test in all cases: log2 fold change, soluble protein after heating vs DMSO (PISA); higher = thermal stabilisation; K562 cells, 10 uM, 30 min; active = over 0.2 and 3.5 SD of the protein, either way, in both replicates (recomputed)
[1] = compound: C1=CC=C(C=C1)[C@H](COC2=CC3=C(C=C2)NC(=O)N3)NC(=O)C4=CC=CN(C4=O)CC5=CC(=C(C=C5)F)F
Outline: (§1)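 Aliquots of K562 cells (2×10^6 cells/mL) treated with 10 μM compound for 30 min were heated for 3 min over 48°C-58°C. After pooling and extraction in PBS with 0.5% NP-40 at 4°C, soluble protein from a 21,000xg, 90 min spin was quantified by TMTpro 16plex LC-MS/MS with channel sums equalised. Thermal stability is expressed against control samples, from duplicates, as a log2 fold change.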

[2] = compound: CC1=C(SC2=C1C(=N[C@H](C3=NN=C(N32)C)CC(=O)N)C4=CC=C(C=C4)Cl)C
Outline: as §1

[3] = compound: CC1=C2C(=CC=C1)N=C(N(C2=O)C3=CC=CC=C3C)CN4C=NC5=C(N=CN=C54)N
Outline: as §1

[4] = compound: Cc1sc2c(c1C)C(c1ccc(Cl)cc1)=N[C@@H](CC(=O)OC(C)(C)C)c1nnc(C)n1-2
Outline: as §1

[5] = compound: c1ccc([C@@H]2C[C@H]2NC2CCNCC2)cc1
Outline: as §1

Measured: log2 fold change

EIF4H (UniProt Q15056)
inactive: [1] -0.035 | [2] 0.021 | [3] 0.014 | [4] 0 | [5] 0.006

ENKD1 (UniProt Q9H0I2)
inactive: [3] 0.163 | [4] -0.128

EIF4B (UniProt P23588)
inactive: [1] -0.003 | [2] -0.013 | [3] 0.008 | [4] 0.006 | [5] 0.01

EMD (UniProt P50402)
inactive: [1] 0.016 | [2] 0.022 | [3] 0.059 | [4] 0.058 | [5] 0.031

EIF2AK4 (UniProt Q9P2K8)
inactive: [1] -0.037 | [2] 0.064 | [3] 0.02 | [4] 0.056 | [5] 0.046

EHHADH (UniProt Q08426)
inactive: [1] -0.058 | [2] 0.031 | [3] 0.025 | [4] -0.02 | [5] -0.031

EIF4G1 (UniProt Q04637)
inactive: [2] -0.032 | [3] 0.011 | [4] 0.098 | [5] -0.028

ENPP3 (UniProt O14638)
inactive: [1] 0.045 | [2] 0.005 | [3] 0.23 | [5] -0.021

ENTPD6 (UniProt O75354)
inactive: [1] 0.022 | [2] -0.086 | [4] -0.021 | [5] 0.002

ENTPD7 (UniProt Q9NQZ7)
inactive: [1] 0.066 | [4] 0.173

ELAVL4 (UniProt P26378)
inactive: [1] -0.07 | [2] -0.168 | [4] 0.13 | [5] 0.084

ELAC1 (UniProt Q9H777)
inactive: [2] 0.123 | [3] 0.146 | [5] 0.059

ENTR1 (UniProt Q96C92)
inactive: [3] 0.191

EID1 (UniProt Q9Y6B2)
inactive: [4] -0.135

EIF3G (UniProt O75821)
inactive: [1] -0.032 | [2] -0.012 | [3] 0.008 | [4] 0.025 | [5] 0.019

ELF1 (UniProt P32519)
inactive: [2] 0.008 | [4] 0.017 | [5] 0.007

EHBP1 (UniProt Q8NDI1)
inactive: [2] -0.163 | [4] 0.041 | [5] 0.229

EML3 (UniProt Q32P44)
inactive: [1] -0.021 | [2] -0.12 | [4] 0.182 | [5] 0.01

EEF2K (UniProt O00418)
inactive: [2] 0.001 | [3] 0.145 | [5] -0.082

EIF5A2 (UniProt Q9GZV4)
inactive: [1] -0.098 | [2] 0.053 | [5] -0.083

EFR3A (UniProt Q14156)
inactive: [3] 0.12

ELMO1 (UniProt Q92556)
inactive: [1] -0.085 | [3] 0.026

EIF4A1 (UniProt P60842)
inactive: [1] -0.043 | [2] 0.096 | [3] 0.05 | [4] -0.005 | [5] -0.042

EIF3I (UniProt Q5TFK1)
inactive: [2] 0.08 | [4] -0.056 | [5] -0.018

ELOVL7 (UniProt A1L3X0)
inactive: [2] 0.077 | [4] -0.066 | [5] -0.01

Copied from the entries so far (2 entries):
ELMO1 (UniProt Q92556)
inactive: [1] -0.085 | [3] 0.026

EIF4A1 (UniProt P60842)
inactive: [1] -0.043 | [2] 0.096 | [3] 0.05 | [4] -0.005 | [5] -0.042

2 entries picked at random from the list so far:
EIF3I (UniProt Q5TFK1)
inactive: [2] 0.08 | [4] -0.056 | [5] -0.018

ELMO1 (UniProt Q92556)
inactive: [1] -0.085 | [3] 0.026

(listing goes on)

EIF3J isoform 2 (UniProt O75822)
inactive: [1] 0.092 | [3] 0.25 | [4] 0.049

EPB41 isoform 4 (UniProt P11171)
inactive: [1] 0.016 | [4] 0.04

EP400P1 isoform 6 (UniProt Q6ZTU2)
inactive: [4] 0.068

EP400 (UniProt Q96L91)
inactive: [2] 0.152 | [5] -0.125

EFHD1 (UniProt Q9BUP0)
inactive: [2] -0.029 | [3] 0.066 | [4] 0.031 | [5] 0.196

ENTPD4 (UniProt Q9Y227)
inactive: [1] -0.033 | [4] 0.039

ENOSF1 (UniProt Q7L5Y1)
inactive: [1] -0.04 | [2] 0.138 | [3] 0.156 | [4] -0.012 | [5] 0.033

EOGT (UniProt Q5NDL2)
inactive: [1] 0.013 | [2] -0.074 | [3] 0.056 | [4] -0.032 | [5] 0.077

EFEMP1 (UniProt Q12805)
inactive: [2] -0.14 | [4] -0.203 | [5] 0.119

ENAH (UniProt Q8N8S7)
inactive: [3] 0.238

ELL (UniProt P55199)
inactive: [1] -0.22 | [2] -0.007 | [4] -0.289 | [5] -0.024

EEF1D isoform 3 (UniProt P29692)
inactive: [4] -0.694

EIF4B (UniProt F8VP89)
inactive: [1] -0.544 | [2] 0.026 | [5] 0.133

EHMT1 (UniProt Q9H9B1)
inactive: [1] 0.09 | [2] 0.078 | [3] 0.03 | [4] 0.102 | [5] 0.034
